The supplement of paper PMC10735217
Structures can show the parent of a compound that is named as a salt. The list shows a part of the results. Repeats in this data set agree poorly, so a single value says little.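 In a drug-repurposing library screen, luminescence reads luciferase driven by eight TEAD-binding elements, stably integrated into human kidney-derived cells. Compounds scoring over five robust Z scores above the plate mean are called hits.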

Tested on: HEK293A TEAD-LUC reporter
Experiment: TEAD-luciferase reporter activity (YAP activation), robust Z score vs plate; higher = stronger YAP/TEAD activation
Conditions: 24 h

| Structure (SMILES) | TEAD-luciferase reporter activity (compound concentration: 200 nM) | TEAD-luciferase reporter activity (compound concentration: 2 uM) | TEAD-luciferase reporter activity (compound concentration: 10 uM) |
| --- | --- | --- | --- |
| Fc1cc(F)c(OCc2ccccc2C2CCNCC2)c(F)c1 | inactive: -0.36 | inactive: 2.66 | inactive: 1.68 |
| CCOC(=O)c1c[n+](C)c2n(c1=O)C(C)CCC2 (stereo not given) | inactive: 0.132 | inactive: -0.123 | inactive: 4.24 |
| COc1ccc2cccc(CCNC(C)=O)c2c1 [agomelatine] | inactive: -0.835 | inactive: -0.187 | inactive: 0.142 |
| CCOc1cc(CN2CCOCC2)cc2[nH]c(=O)c3c(c12)NCCC3 | inactive: 0.345 | inactive: 0.137 | inactive: 1.64 |
| CSc1ccc(-c2ccc(N3C[C@H](CNC(C)=S)OC3=O)cc2)nn1 | inactive: -1.21 | inactive: -1.85 | inactive: -1.1 |
| CCC(C)(Oc1ccc(C2(c3ccc(OC(C)(CC)C(=O)O)cc3)CCCCC2)cc1)C(=O)O (stereo not given) [clinofibrate] | inactive: -1.18 | inactive: -1.85 | inactive: -2.49 |
| Cc1cc(C)c(N)c(C#Cc2cccc(F)c2)n1 | inactive: -1.93 | inactive: 1.12 | inactive: 2.19 |
| NCCS(=O)(=O)O [Taurine] | inactive: 1.35 | inactive: -0.268 | inactive: -1.76 |
| C#CC(C)(C)NCC(O)COc1ccc(NC(=O)C(C)C)cc1C#N (stereo not given) | inactive: 0.1 | inactive: -1.25 | inactive: -1.81 |
| Nc1nc2c(ncn2COC(CO)CO)c(=O)[nH]1 [ganciclovir] | inactive: -0.0283 | inactive: -0.227 | inactive: -0.604 |
| O=C1NCc2ccccc2CC12CCCN2Cc1ccc(Br)cc1 (stereo not given) | inactive: -3.13 |  | inactive: 4.5 |
| CC(C)[C@@H](CC[C@@H](C)[C@H]1CC[C@H]2[C@@H]3[C@H](O)C[C@H]4C[C@@H](NCCCNCCCCNCCCN)CC[C@]4(C)[C@H]3CC[C@]12C)OS(=O)(=O)O [Trodusquemine] |  | inactive: -0.662 |  |
| CC(C)[C@@H](CC[C@@H](C)[C@H]1CC[C@H]2[C@@H]3[C@H](O)C[C@H]4C[C@@H](NCCCNCCCCNCCCN)CC[C@]4(C)[C@H]3CC[C@]12C)OS(=O)(=O)O | inactive: -0.674 |  | inactive: 0.759 |
| COc1cc2c(cc1C(N)=O)CC[C@@H]1[C@@H]2CC[C@]2(C)C=CC[C@@H]12 | inactive: 0.957 | inactive: 3.64 | active: 5.43 |
| CC(C)Cc1ccc(C(C)C(=O)O)cc1 (stereo not given) [ibuprofen arginine] |  | inactive: -1.08 |  |
| CC(C)Cc1ccc(C(C)C(=O)O)cc1 (stereo not given) | inactive: -0.922 |  | inactive: 0.113 |
| CCNC(=O)NCc1cccc(Cl)c1 [lozilurea] | inactive: -0.396 | inactive: -1.7 | inactive: 1.87 |
| CN(C)CCn1ccc2ccc(NC(=N)c3cccs3)cc21 | inactive: -0.707 | inactive: 0.529 | inactive: -1.22 |
| CC1=C(c2ccc(OC(=O)C(C)(C)C)cc2)[C@@H](c2ccc(OCCN3CCCCC3)cc2)Oc2cc(OC(=O)C(C)(C)C)ccc21 | inactive: -1.15 | inactive: 1.79 | inactive: 0.55 |
| C=C/C=C/C[C@@H](C)[C@@H](O)[C@H]1C(=O)N[C@@H](CC)C(=O)N(C)CC(=O)N(C)[C@@H](CC(C)C)C(=O)N[C@@H](C(C)C)C(=O)N(C)[C@@H](CC(C)C)C(=O)N[C@@H](C)C(=O)N[C@H](C)C(=O)N(C)[C@@H](CC(C)C)C(=O)N(C)[C@@H](CC(C)C)C(=O)N(C)[C@@H](C(C)C)C(=O)N1C [voclosporin] | inactive: -2.19 | inactive: -0.501 | inactive: -0.312 |
| Nc1cccc2c(=O)[nH][nH]c(=O)c12 [Luminol sodium salt] | inactive: -1.27 | inactive: -0.0766 | inactive: 0.948 |
| O=C(O)CCCCC1CCSS1 (stereo not given) [thioctic acid, Meda] | inactive: -0.0847 |  | inactive: -0.723 |
| O=C(O)CCCCC1CCSS1 (stereo not given) [thioctic acid] |  | inactive: -0.989 |  |
| Fc1ccc2nc(CCC#Cc3ccccn3)cn2c1 [dipraglurant] | inactive: -0.594 | inactive: 0.574 | inactive: 0.858 |
| Cc1onc(-c2c(Cl)cccc2Cl)c1C(=O)NC1C(=O)N2C1SC(C)(C)C2C(=O)O (stereo not given) [dicloxacillin] |  | inactive: -1.1 |  |
| Cc1onc(-c2c(Cl)cccc2Cl)c1C(=O)NC1C(=O)N2C1SC(C)(C)C2C(=O)O (stereo not given) [dicloxacillin, Himedics] | inactive: -1.19 |  | inactive: -3.68 |
| CC1(C)S[C@@H]2[C@H](NC(=O)C(c3ccccc3)S(=O)(=O)[O-])C(=O)N2[C@H]1C(=O)[O-] (stereo not given in full) [sulbenicillin] | inactive: 1.2 | inactive: 0.0144 | inactive: 0.662 |

An excerpt from above with just TEAD-luciferase reporter activity (compound concentration: 10 uM):

| Structure (SMILES) | TEAD-luciferase reporter activity (compound concentration: 10 uM) |
| --- | --- |
| CCC(C)(Oc1ccc(C2(c3ccc(OC(C)(CC)C(=O)O)cc3)CCCCC2)cc1)C(=O)O (stereo not given) [clinofibrate] | inactive: -2.49 |
| CC1(C)S[C@@H]2[C@H](NC(=O)C(c3ccccc3)S(=O)(=O)[O-])C(=O)N2[C@H]1C(=O)[O-] (stereo not given in full) [sulbenicillin] | inactive: 0.662 |

(cont.)

| Structure (SMILES) | TEAD-luciferase reporter activity (compound concentration: 200 nM) | TEAD-luciferase reporter activity (compound concentration: 2 uM) | TEAD-luciferase reporter activity (compound concentration: 10 uM) |
| --- | --- | --- | --- |
| O=C(O)CCCCCc1cccc2cncn12 [Pirmagrel] | inactive: -0.568 | inactive: -0.474 | inactive: 0.118 |
| CC(=O)N1CCC(c2nccnc2Oc2ccc(C(=O)c3nc4ccccc4[nH]3)cc2)CC1 | inactive: -1.42 | inactive: -1.24 | inactive: 4.26 |
| CCOC(=O)C1CCN(c2nc(N(C)S(=O)(=O)c3cccc4ccccc34)ccc2[N+](=O)[O-])CC1 | inactive: -0.777 | inactive: 2.35 | inactive: -0.392 |
| CC(C)[C@H](NC(=O)[C@H](CC(=O)O)NC(=O)[C@H](CCCCN)NC(=O)[C@@H](N)CCCNC(=N)N)C(=O)O [Thymopoietin II (32-35)] | inactive: 0.556 | inactive: -0.187 | inactive: 0.689 |
| O=C(O)C1=Cc2cc(Cl)cc(Cl)c2O[C@@H]1C(F)(F)F | inactive: 0.312 | inactive: 0.534 | inactive: -1.21 |
| CCCc1c(OCc2ccc(C(O)c3cccc(C(=O)O)c3)cc2)ccc(C(C)=O)c1O (stereo not given) | inactive: 0.517 | inactive: -0.574 | inactive: -0.596 |
| O=C([O-])CC(O)(CC(=O)[O-])C(=O)[O-] [sodium citrate] | inactive: -1.11 |  | inactive: -0.4 |
| O=C(c1cccc(Cl)c1)N1CCCC(C(=O)N2CCC(c3ccccc3)CC2)C1 (stereo not given) | inactive: -0.269 |  | inactive: 1.47 |
| CC(C)C1=C2[C@H]3CC[C@@H]4[C@@]5(C)CC[C@H](OC(=O)CC(C)(C)C(=O)O)C(C)(C)[C@@H]5CC[C@@]4(C)C3(C)CC[C@@]2([C@@H](O)CN(CCN(C)C)Cc2ccc(Cl)cc2)CC1=O (stereo not given in full) | inactive: 0.369 | inactive: 0.0272 | inactive: 0.0944 |
| CSc1ccc([C@H]2CN3CCC[C@H]3c3ccccc32)cc1 | inactive: -1.08 | inactive: -1.46 | inactive: 0.766 |
| COc1ccc(C)cc1NS(=O)(=O)c1cc(OC2CCNCC2)c2occc2c1 | inactive: -0.5 | inactive: -0.115 | inactive: -0.851 |
| C[C@]12CC[C@H]3[C@@H](CCC4=CC(=O)CC[C@@]43C)[C@@H]1CC[C@@H]2C(=O)CO | inactive: 4.18 | inactive: -0.117 | inactive: 0.0988 |
| COc1ccc(C(=O)N2CCCC2C(=O)N2CCC(c3ccccc3)CC2)cc1 (stereo not given) | inactive: -0.65 |  | inactive: -1.69 |
| CC1CCC2C(C)(C)C3CC12CCC3(C)O (single isomer, unassigned; (+)) [(+)-Cedrol] | inactive: 1.72 | inactive: -1.05 | inactive: -0.533 |
| CC1=CC[C@H](C(C)(C)O)C[C@H]1O [Cyclidrol] | inactive: 0.277 | inactive: 1.6 | inactive: 0.829 |
| Oc1ncc(F)cn1 [5-fluoro-2-pyrimidone] | inactive: -0.833 |  | inactive: -0.925 |
| Oc1ncc(F)cn1 |  | inactive: 0.71 |  |
| CCOC(=O)c1cc(=O)c2c(OCC(COc3cccc4oc(C(=O)OCC)cc(=O)c34)OC(=O)[C@@H](N)CCCCN)cccc2o1 [Cromoglycate lisetil hydrochloride] | inactive: -0.237 | inactive: -0.454 | inactive: 1.04 |
| COCCN1CCC(N(Cc2ccc(-c3ccc(C(F)(F)F)cc3)cc2)C(=O)c2cccs2)CC1 | inactive: -0.455 | inactive: -1.82 | inactive: -0.176 |
| C[n+]1ccn(C[C@@]2(C)[C@H](C(=O)[O-])N3C(=O)C[C@H]3S2(=O)=O)n1 | inactive: 1.7 | inactive: 0.276 | inactive: -1.58 |
| Cc1nc(Nc2n[nH]c3c2CN(C(=O)N[C@H](CN(C)C)c2ccccc2)C3(C)C)c2sccc2n1 | inactive: -2.35 | inactive: 3.68 | inactive: -1.36 |
| CC(C)(Sc1cc(C(C)(C)C)c(O)c(C(C)(C)C)c1)Sc1cc(C(C)(C)C)c(OC(=O)CCC(=O)O)c(C(C)(C)C)c1 [Succinobucol] | inactive: -0.689 | inactive: -0.0124 | inactive: 1.63 |
| Cc1cc(C(C)(C)C)c(O)c(C(C)(C)C)c1 [butylated hydroxytoluene] | inactive: 0.993 | inactive: -0.659 | inactive: -0.11 |
| COc1ncc(-c2ccc3nccc(-c4ccnnc4)c3c2)cc1NS(=O)(=O)c1ccc(F)cc1F | inactive: -1.56 |  | inactive: -2.63 |
| COc1ncc(-c2ccc3nccc(-c4ccnnc4)c3c2)cc1NS(=O)(=O)c1ccc(F)cc1F [omipalisib] |  | inactive: -2.2 |  |
| COc1cc2nc(N3CCN(C(=O)OC(C)(C)C)CC3)nc(N)c2cc1OC | inactive: -1.23 | inactive: -0.488 | inactive: 1.63 |
| Cc1cc(OCP(=O)(O)O)cc(C)c1Cc1ccc(O)c(C(C)C)c1 | inactive: -1.65 | inactive: -1.08 | inactive: -0.821 |
